The results in this text go back to paper PMC5293159.

Protein sequences, listed by entry. Tags and fused reporters are not part of them.
UniProt Q15021: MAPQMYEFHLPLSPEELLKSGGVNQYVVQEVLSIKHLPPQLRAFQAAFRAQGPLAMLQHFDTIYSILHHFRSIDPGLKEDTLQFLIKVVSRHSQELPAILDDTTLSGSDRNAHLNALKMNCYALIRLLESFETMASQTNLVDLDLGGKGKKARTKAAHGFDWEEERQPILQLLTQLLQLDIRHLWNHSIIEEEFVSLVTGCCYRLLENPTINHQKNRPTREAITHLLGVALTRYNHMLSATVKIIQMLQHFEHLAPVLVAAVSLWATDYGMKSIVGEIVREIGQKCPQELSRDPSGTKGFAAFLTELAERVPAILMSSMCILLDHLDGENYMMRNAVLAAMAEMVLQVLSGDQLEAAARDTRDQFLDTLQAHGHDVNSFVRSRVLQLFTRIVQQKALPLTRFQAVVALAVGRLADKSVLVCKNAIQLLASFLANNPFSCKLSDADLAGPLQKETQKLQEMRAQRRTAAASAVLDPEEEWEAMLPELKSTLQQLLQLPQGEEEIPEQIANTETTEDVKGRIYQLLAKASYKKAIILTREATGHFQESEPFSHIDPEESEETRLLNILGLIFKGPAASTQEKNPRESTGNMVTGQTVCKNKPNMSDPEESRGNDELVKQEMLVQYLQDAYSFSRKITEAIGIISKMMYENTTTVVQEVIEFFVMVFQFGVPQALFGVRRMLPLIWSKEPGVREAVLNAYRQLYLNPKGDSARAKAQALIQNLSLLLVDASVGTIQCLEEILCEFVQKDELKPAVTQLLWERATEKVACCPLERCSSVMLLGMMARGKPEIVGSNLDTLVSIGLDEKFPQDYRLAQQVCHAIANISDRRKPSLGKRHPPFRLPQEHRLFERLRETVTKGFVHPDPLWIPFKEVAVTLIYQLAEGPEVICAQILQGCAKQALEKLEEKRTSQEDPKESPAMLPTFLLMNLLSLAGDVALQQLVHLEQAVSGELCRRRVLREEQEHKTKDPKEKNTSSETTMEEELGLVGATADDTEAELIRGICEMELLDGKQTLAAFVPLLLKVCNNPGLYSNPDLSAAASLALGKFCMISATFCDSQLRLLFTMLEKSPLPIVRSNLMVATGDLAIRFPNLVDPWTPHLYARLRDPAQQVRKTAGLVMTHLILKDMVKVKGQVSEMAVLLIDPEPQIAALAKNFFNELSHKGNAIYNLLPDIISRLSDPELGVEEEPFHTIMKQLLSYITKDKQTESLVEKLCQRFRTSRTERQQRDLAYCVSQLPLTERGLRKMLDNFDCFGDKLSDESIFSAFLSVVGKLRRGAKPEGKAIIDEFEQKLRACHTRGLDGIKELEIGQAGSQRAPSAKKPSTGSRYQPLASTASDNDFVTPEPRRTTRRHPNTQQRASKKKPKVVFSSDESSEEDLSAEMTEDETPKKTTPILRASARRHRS
UniProt Q15003: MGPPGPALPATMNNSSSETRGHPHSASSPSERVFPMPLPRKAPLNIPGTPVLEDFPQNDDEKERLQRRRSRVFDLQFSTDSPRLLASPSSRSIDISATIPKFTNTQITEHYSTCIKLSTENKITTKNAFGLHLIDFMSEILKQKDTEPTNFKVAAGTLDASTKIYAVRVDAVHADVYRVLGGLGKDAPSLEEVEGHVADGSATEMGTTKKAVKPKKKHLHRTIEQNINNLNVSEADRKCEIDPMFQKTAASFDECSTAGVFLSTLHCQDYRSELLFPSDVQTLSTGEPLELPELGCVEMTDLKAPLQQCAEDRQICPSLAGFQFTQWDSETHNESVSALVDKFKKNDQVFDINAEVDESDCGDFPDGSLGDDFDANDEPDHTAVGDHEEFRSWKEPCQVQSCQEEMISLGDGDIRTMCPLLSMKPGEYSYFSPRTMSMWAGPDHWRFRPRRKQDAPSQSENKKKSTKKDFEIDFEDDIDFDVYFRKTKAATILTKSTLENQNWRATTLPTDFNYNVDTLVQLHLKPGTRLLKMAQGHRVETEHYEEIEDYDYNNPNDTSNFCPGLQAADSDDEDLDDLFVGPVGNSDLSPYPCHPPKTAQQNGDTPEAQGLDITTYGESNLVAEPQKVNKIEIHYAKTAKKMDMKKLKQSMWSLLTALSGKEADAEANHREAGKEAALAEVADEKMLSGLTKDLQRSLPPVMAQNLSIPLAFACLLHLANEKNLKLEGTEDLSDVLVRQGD

For this assay, the target named is NCAPD2 (human (endogenous in Jurkat)) (UniProt Q15021). Nature of the assay: SEC; SEC-PCP-SILAC: Jurkat cytoplasmic lysate (concentrated on 100,000 Da cutoff) on two BioSep4000 columns, 50 mM KCl, 50 mM NaCH3COO, pH 7.2, 8°C, fractions analysed by LC-MS/MS; interactions assigned from similarity of elution profiles; cells untreated or treated 4 h with anti-Fas IgM. Background: Size exclusion chromatography separates by hydrodynamic size, large species first.

These are yes or no findings as the source states them, for the method shown. Some binding calls cover weakened binding; strength is not graded here.

Take NCAPH (from UniProt Q15003 1-741): the binding result is “binds”.
